Measurements published in PMC11477393.
Results are given in words; binding and its absence hold for the method and conditions named. Binding seen in cells or lysates may run through a third protein. Some results given as binding are weak or reduced against the parent protein; the word gives no strength.

Amino acid sequences for entries named in this document (tags omitted).
UniProt P09405: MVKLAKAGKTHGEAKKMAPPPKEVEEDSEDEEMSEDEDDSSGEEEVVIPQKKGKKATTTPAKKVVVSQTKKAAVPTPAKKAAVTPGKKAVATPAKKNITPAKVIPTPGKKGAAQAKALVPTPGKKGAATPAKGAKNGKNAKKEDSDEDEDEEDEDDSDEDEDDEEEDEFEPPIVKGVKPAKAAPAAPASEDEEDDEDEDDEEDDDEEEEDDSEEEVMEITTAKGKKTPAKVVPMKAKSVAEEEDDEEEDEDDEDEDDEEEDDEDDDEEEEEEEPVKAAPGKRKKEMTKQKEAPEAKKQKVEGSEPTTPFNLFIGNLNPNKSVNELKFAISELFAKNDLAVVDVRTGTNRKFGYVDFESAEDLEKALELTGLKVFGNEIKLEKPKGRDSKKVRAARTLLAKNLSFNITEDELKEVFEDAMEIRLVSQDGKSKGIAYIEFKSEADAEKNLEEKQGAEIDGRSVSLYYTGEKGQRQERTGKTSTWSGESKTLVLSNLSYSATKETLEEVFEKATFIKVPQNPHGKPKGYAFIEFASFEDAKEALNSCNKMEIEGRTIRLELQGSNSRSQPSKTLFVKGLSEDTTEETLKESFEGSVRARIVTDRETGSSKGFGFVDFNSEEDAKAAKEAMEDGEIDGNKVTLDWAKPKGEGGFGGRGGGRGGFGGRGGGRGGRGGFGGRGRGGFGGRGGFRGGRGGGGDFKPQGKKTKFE
UniProt Q6PDM2: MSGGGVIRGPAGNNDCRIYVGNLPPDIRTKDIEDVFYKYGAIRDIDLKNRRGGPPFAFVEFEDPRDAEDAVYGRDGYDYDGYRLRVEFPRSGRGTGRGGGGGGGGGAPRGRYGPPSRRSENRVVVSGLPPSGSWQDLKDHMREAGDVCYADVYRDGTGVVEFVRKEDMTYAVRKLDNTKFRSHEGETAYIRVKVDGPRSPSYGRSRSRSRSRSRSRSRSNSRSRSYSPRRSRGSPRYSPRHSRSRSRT

What was measured:
[1] = biological target: T1, Npac (mouse (endogenous in E14)) (UniProt Q922P9); assay: co-IP; E14 nuclear extracts dialysed against BC50 buffer, with or without RNase A (100 μg/mL, 15 min), beads cross-linked with Npac antibody, rabbit IgG as control, Western blot
T1 sequence: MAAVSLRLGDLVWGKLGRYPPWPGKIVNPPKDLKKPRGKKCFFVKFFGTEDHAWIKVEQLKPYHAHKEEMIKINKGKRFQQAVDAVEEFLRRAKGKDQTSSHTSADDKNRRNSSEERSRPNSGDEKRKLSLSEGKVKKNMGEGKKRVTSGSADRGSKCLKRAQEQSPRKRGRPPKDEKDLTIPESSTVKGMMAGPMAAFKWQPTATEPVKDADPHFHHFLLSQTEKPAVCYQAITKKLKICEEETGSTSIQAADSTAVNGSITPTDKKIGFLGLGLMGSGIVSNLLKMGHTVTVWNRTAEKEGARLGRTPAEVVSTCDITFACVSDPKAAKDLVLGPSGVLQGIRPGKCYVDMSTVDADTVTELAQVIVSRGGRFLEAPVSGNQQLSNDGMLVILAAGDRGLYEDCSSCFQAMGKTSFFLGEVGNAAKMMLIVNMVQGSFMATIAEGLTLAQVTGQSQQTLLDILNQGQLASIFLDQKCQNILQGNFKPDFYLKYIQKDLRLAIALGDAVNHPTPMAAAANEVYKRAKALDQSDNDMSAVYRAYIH

[2] = biological target: T1, Npac (mouse (endogenous in E14)); assay: co-IP; E14 cell lysate in NP40 lysis buffer (50 mM Tris-HCl pH 8.0, 1 mM EDTA, 150 mM NaCl, 1% NP-40, 10% glycerol), antibody-coated Protein A agarose beads, 4 °C, five washes, immunoblot; anti-Npac and reverse IPs, control IgG

binding [1]	binding [2]	Substance
binds	binds	Nucleolin (from UniProt P09405 1-707)
binds	binds	Serine/arginine-rich splicing factor 1 (from UniProt Q6PDM2 1-248)
